The assay addresses TET1 (ten-eleven translocation 1), endogenous in oligodendrocyte lineage cells (mouse (endogenous in primary mouse OPCs and OLs)) (UniProt Q3URK3). As to the kind of experiment: affinity purification with mass spectrometry; IP of endogenous TET1 (rabbit anti-TET1, Catch and Release kit) from RIPA lysate of purified mouse OPCs; normal IgG as control; SDS-PAGE, in-gel trypsin digestion, LC-MS/MS; done twice.

Chains of the proteins cited; added tags and fusions are not shown. Lines headed by an entry give the natural chain unless they say otherwise; changes in a name come on top.
UniProt Q3URK3: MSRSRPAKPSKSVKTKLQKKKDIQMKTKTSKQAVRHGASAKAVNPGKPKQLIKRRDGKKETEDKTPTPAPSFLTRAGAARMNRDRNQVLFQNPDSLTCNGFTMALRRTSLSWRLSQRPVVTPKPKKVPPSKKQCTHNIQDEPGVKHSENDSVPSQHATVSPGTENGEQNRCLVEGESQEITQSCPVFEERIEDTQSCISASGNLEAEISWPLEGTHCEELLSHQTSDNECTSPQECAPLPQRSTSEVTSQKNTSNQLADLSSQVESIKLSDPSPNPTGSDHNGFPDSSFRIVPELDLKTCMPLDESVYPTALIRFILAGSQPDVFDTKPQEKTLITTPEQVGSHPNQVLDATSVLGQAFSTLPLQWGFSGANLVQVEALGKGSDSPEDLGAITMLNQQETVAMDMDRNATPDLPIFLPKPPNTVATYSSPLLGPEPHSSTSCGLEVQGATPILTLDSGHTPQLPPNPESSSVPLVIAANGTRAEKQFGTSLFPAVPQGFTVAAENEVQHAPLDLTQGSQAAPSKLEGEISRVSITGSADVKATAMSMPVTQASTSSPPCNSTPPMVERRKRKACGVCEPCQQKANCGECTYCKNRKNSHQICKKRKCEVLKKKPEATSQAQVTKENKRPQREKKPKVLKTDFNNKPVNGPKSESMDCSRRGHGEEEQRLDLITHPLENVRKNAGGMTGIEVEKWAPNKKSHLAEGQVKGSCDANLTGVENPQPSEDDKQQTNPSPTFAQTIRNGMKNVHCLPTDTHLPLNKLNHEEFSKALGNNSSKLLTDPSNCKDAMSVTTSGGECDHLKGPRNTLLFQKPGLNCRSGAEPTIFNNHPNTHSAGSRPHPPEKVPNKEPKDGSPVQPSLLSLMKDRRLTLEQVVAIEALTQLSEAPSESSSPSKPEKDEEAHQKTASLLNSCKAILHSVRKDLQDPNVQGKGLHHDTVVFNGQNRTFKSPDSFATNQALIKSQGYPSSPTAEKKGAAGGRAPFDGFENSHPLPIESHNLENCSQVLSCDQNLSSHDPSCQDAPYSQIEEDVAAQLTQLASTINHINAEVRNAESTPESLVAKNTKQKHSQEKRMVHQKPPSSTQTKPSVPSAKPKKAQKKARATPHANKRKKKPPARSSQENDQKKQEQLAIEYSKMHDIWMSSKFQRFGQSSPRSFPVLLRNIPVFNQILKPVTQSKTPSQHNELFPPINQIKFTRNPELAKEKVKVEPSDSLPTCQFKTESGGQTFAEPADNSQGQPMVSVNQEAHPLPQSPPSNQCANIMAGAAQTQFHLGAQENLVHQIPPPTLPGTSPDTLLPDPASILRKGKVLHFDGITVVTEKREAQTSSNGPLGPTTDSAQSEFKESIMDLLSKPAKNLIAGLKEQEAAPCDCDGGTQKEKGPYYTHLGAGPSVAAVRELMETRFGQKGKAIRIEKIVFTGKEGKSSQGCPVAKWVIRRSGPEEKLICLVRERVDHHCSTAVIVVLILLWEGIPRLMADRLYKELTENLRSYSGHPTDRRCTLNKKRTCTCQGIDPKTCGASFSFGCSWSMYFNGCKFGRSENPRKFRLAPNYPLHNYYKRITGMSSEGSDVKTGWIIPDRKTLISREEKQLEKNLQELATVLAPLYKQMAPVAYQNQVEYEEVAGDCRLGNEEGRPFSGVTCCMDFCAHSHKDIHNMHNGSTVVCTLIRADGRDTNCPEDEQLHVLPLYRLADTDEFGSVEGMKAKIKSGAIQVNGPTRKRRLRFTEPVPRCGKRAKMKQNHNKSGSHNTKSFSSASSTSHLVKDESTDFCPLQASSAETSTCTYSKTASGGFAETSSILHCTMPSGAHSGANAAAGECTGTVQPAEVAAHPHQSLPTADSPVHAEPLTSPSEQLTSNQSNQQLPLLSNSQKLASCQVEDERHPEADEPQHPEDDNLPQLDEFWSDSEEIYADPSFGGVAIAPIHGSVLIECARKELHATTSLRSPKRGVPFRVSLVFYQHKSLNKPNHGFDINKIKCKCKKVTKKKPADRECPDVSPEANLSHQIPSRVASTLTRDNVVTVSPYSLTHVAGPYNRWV
UniProt P63024: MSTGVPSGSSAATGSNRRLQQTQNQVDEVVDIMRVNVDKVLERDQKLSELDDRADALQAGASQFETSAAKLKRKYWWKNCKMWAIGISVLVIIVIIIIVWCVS
UniProt P05201: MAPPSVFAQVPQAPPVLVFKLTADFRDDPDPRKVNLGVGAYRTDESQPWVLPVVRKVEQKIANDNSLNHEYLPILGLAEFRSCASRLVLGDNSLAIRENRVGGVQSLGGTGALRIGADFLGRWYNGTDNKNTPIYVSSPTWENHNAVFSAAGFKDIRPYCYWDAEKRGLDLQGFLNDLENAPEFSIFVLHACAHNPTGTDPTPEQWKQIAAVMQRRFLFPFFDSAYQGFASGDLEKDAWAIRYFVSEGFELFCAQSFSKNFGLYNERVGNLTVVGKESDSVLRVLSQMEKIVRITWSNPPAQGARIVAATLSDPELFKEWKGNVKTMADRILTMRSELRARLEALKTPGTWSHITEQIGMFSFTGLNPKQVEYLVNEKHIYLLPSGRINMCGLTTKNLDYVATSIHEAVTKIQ
UniProt P97493: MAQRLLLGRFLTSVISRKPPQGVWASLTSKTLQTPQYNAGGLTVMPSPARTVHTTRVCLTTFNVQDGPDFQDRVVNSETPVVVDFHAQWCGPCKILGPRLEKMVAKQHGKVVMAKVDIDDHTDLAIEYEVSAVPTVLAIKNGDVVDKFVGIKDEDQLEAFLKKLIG
UniProt Q91W53: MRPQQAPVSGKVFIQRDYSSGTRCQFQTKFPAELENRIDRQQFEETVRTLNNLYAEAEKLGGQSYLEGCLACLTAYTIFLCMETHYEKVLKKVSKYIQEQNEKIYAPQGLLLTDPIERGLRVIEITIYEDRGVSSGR

These are yes or no findings as the source states them, for the method shown. In cells and extracts the contact can be indirect. These calls come from enrichment with a bait or labelling near it, and not all partners need be listed.

Vamp3 (from UniProt P63024 1-103): the binding entry was “binds”.

Take Got1 (from UniProt P05201 1-413): the binding entry was “binds”.

Turning to Tnx2 (from UniProt P97493), the binding result is on record as “binds”.

As for Golga7 (from UniProt Q91W53 1-137), the binding result is given as “binds”.

B1: Gsr (protein, UniProt P47791 27-500)
chain: MASPGEPQPPAPDTSSFDYLVIGGGSGGLASARRAAELGARAAVVESHKLGGTCVNVGCVPKKVMWNTAVHSEFMHDHVDYGFQSCEGKFSWHVIKQKRDAYVSRLNTIYQNNLTKSHIEIIHGYATFADGPRPTVEVNGKKFTAPHILIATGGVPTVPHESQIPGASLGITSDGFFQLEDLPSRSVIVGAGYIAVEIAGILSALGSKTSLMIRHDKVLRNFDSLISSNCTEELENAGVEVLKFTQVKEVKKTSSGLELQVVTSVPGRKPTTTMIPDVDCLLWAIGRDPNSKGLNLNKVGIQTDEKGHILVDEFQNTNVKGVYAVGDVCGKALLTPVAIAAGRKLAHRLFECKQDSKLDYDNIPTVVFSHPPIGTVGLTEDEAVHKYGKDNVKIYSTAFTPMYHAVTTRKTKCVMKMVCANKEEKVVGIHMQGIGCDEMLQGFAVAVKMGATKADFDNTVAIHPTSSEELVTLR
As for B1, the binding result is “binds”.

B2: Cst3 (protein, UniProt P21460 21-140)
chain: ATPKQGPRMLGAPEEADANEEGVRRALDFAVSEYNKGSNDAYHSRAIQVVRARKQLVAGVNYFLDVEMGRTTCTKSQTNLTDCPFHDQPHLMRKALCSFQIYSVPWKGTHSLTKFSCKNA
Take B2: the binding result was “binds”.

B3: Gm2a (protein, UniProt Q60648 21-193)
chain: ARLVPKRLSQLGGFSWDNCDEGKDPAVIKSLTIQPDPIVVPGDVVVSLEGKTSVPLTAPQKVELTVEKEVAGFWVKIPCVEQLGSCSYENICDLIDEYIPPGESCPEPLHTYGLPCHCPFKEGTYSLPTSNFTVPDLELPSWLSTGNYRIQSILSSGGKRLGCIKIAASLKGR
For B3, the binding result was “binds”.

B4: Abcb6 (protein, UniProt Q9DC29 1-842)
chain: MVTVGNYCETEGPAGPAWTQNGLSPCFFFTLVPSTLLTLGVLALVLVLPRRRREVPAGPEELSWAAGPRVAPYVLQLFLATLQMALPLAGLAGRVGTARGVRLPGYLLLASVLESLASVCGLWLLVVERSQARQSLAMGVWMKFRHSLGLLLLWTVTFAAENLALVSWNSPQWWWARADLGQQVQFGLWVLRYVTSGGLFILGLWAPGLRPQSYTLHVHEEDQDVGGNQGRSTDRRSTWRDLGRKLRLLSSYLWPRGSPSLQLIVLICLGLMGLERALNVLVPIFYRDIVNLLTAKAPWSSLAWTVTTYVFLKFLQGGGTGSTGFVSNLRTFLWIRVQQFTSRGVELRLFSHLHELSLRWHLGRRTGEVLRIVDRGTSSVTGLLSYLVFSIIPTLADIIIGIIYFSMFFNAWFGLIVFLCMSLYLILTIVVTEWRAKFRRDMNTQENATRARAVDSLLNFETVKYYGAEGYEVDRYREAILKFQGLEWKSTASLVVLNQTQNLVIGLGLLAGSLLCAYFVSEQKLQVGDFVLFGTYITQLYMPLNWFGTYYRMIQTNFIDMENMFDLLKEETEVKDVPGAGPLRFHKGRIEFENVHFSYADGQETLQDVSFTVMPGQTVALVGPSGAGKSTILRLLFRFYDISSGCIRIDGQDISQVTQISLRSHIGVVPQDTVLFNDTIANNIRYGRVTAGDSEVEAAAQAAGIHDAILSFPEGYETQVGERGLKLSGGEKQRVAIARTILKAPDIILLDEATSALDTSNERAIQASLAKVCTNRTTIVIAHRLSTVVNADQILVIKDGCIIERGRHEALLSRGGVYAEMWQLQQQGQETVPEESKPQDTA
Turning to B4, the binding entry is “binds”.

B5: Apoe (protein, UniProt P08226 19-311)
chain: EGEPEVTDQLEWQSNQPWEQALNRFWDYLRWVQTLSDQVQEELQSSQVTQELTALMEDTMTEVKAYKKELEEQLGPVAEETRARLGKEVQAAQARLGADMEDLRNRLGQYRNEVHTMLGQSTEEIRARLSTHLRKMRKRLMRDAEDLQKRLAVYKAGAREGAERGVSAIRERLGPLVEQGRQRTANLGAGAAQPLRDRAQAFGDRIRGRLEEVGNQARDRLEEVREHMEEVRSKMEEQTQQIRLQAEIFQARLKGWFEPIVEDMHRQWANLMEKIQASVATNPIITPVAQENQ
With B5, the binding result was “binds”.

These data come from article PMC7493855.
